# Measurements: PubChem BioAssay AID186 (DTP/NCI, 2004)
# Shown are survivors of the treated group in tumour-free mice. Counts of survivors are from the toxicity check (mostly the fifth day) where no day follows; animals may have died later. Schedules are NCI's codes, read here as Q, the interval in days (D) or hours (H), X, the number of doses. Some entries hold several experiments; the values are given in rising order.
# Test system: B6D2F1 mice, nontumored toxicity test, survival
# Assay: NCI In Vivo Anticancer Drug Screen. Data for tumor model Nontumored Animals (Toxicity Test) in B6D2F1 (BDF1) mice
# Details: vehicle: saline
smiles,measurement,setting,value
O=C1C=CN(C2OC(CO)C(O)C2O)C(=O)C1 (centres undefined),survivor count,"dose: 8.0 mg/kg/injection, schedule: Q03HX024 (ip)",8 of 8
same,survivor count,"dose: 16.0 mg/kg/injection, schedule: Q03HX008 (ip)",8 of 8
same,survivor count,"dose: 16.0 mg/kg/injection, schedule: Q03HX016 (ip)",8 of 8
same,survivor count,"dose: 16.0 mg/kg/injection, schedule: Q03HX024 (ip)",8 of 8
same,survivor count,"dose: 32.0 mg/kg/injection, schedule: Q01DX009 (ip)",8 of 8
same,survivor count,"dose: 32.0 mg/kg/injection, schedule: Q01DX009 (sc)",7 of 7
same,survivor count,"dose: 32.0 mg/kg/injection, schedule: Q03HX008 (ip)",7 of 7
same,survivor count,"dose: 32.0 mg/kg/injection, schedule: Q03HX016 (ip)",8 of 8
same,survivor count,"dose: 32.0 mg/kg/injection, schedule: Q03HX024 (ip)",8 of 8
same,survivor count,"dose: 64.0 mg/kg/injection, schedule: Q01DX009 (ip)",8 of 8
same,survivor count,"dose: 64.0 mg/kg/injection, schedule: Q01DX009 (oral)",8 of 8
same,survivor count,"dose: 64.0 mg/kg/injection, schedule: Q01DX009 (sc)",8 of 8
same,survivor count,"dose: 64.0 mg/kg/injection, schedule: Q03HX008 (ip)",8 of 8
same,survivor count,"dose: 64.0 mg/kg/injection, schedule: Q03HX016 (ip)",8 of 8
same,survivor count,"dose: 64.0 mg/kg/injection, schedule: Q03HX024 (ip)",8 of 8
same,survivor count,"dose: 64.0 mg/kg/injection, schedule: Q04DX003 (ip)",8 of 8
same,survivor count,"dose: 128.0 mg/kg/injection, schedule: Q01DX001 (ip)",8 of 8
same,survivor count,"dose: 128.0 mg/kg/injection, schedule: Q01DX009 (ip)",8 of 8
same,survivor count,"dose: 128.0 mg/kg/injection, schedule: Q01DX009 (oral)",8 of 8
same,survivor count,"dose: 128.0 mg/kg/injection, schedule: Q01DX009 (sc)",8 of 8
same,survivor count,"dose: 128.0 mg/kg/injection, schedule: Q03HX008 (ip)",8 of 8
same,survivor count,"dose: 128.0 mg/kg/injection, schedule: Q03HX016 (ip)",8 of 8
same,survivor count,"dose: 128.0 mg/kg/injection, schedule: Q03HX024 (ip)",8 of 8
same,survivor count,"dose: 128.0 mg/kg/injection, schedule: Q04DX003 (ip)",8 of 8
same,survivor count,"dose: 128.0 mg/kg/injection, schedule: Q04DX003 (oral)",7 of 7 and 8 of 8
same,survivor count,"dose: 128.0 mg/kg/injection, schedule: Q04DX003 (sc)",8 of 8
same,survivor count,"dose: 128.0 mg/kg/injection, schedule: Q08DX002 (ip)",8 of 8
same,survivor count,"dose: 256.0 mg/kg/injection, schedule: Q01DX001 (ip)",8 of 8
same,survivor count,"dose: 256.0 mg/kg/injection, schedule: Q01DX009 (ip)",8 of 8
same,survivor count,"dose: 256.0 mg/kg/injection, schedule: Q01DX009 (oral)",8 of 8
same,survivor count,"dose: 256.0 mg/kg/injection, schedule: Q01DX009 (sc)",8 of 8
same,survivor count,"dose: 256.0 mg/kg/injection, schedule: Q03HX008 (ip)",8 of 8
same,survivor count,"dose: 256.0 mg/kg/injection, schedule: Q03HX016 (ip)",8 of 8
same,survivor count,"dose: 256.0 mg/kg/injection, schedule: Q04DX003 (ip)",8 of 8
same,survivor count,"dose: 256.0 mg/kg/injection, schedule: Q04DX003 (oral)",8 of 8
same,survivor count,"dose: 256.0 mg/kg/injection, schedule: Q04DX003 (sc)",8 of 8
same,survivor count,"dose: 256.0 mg/kg/injection, schedule: Q08DX002 (ip)",8 of 8
same,survivor count,"dose: 512.0 mg/kg/injection, schedule: Q01DX001 (ip)",8 of 8
same,survivor count,"dose: 512.0 mg/kg/injection, schedule: Q01DX009 (ip)",8 of 8
same,survivor count,"dose: 512.0 mg/kg/injection, schedule: Q01DX009 (oral)",8 of 8
same,survivor count,"dose: 512.0 mg/kg/injection, schedule: Q01DX009 (sc)",8 of 8
same,survivor count,"dose: 512.0 mg/kg/injection, schedule: Q04DX003 (ip)",8 of 8
same,survivor count,"dose: 512.0 mg/kg/injection, schedule: Q04DX003 (oral)",7 of 7 and 8 of 8
same,survivor count,"dose: 512.0 mg/kg/injection, schedule: Q04DX003 (sc)",8 of 8
same,survivor count,"dose: 512.0 mg/kg/injection, schedule: Q08DX002 (ip)",8 of 8
same,survivor count,"dose: 1024.0 mg/kg/injection, schedule: Q01DX001 (ip)",8 of 8
same,survivor count,"dose: 1024.0 mg/kg/injection, schedule: Q01DX009 (oral)",8 of 8
same,survivor count,"dose: 1024.0 mg/kg/injection, schedule: Q04DX003 (ip)",8 of 8
same,survivor count,"dose: 1024.0 mg/kg/injection, schedule: Q04DX003 (oral)",8 of 8
same,survivor count,"dose: 1024.0 mg/kg/injection, schedule: Q04DX003 (sc)",8 of 8
same,survivor count,"dose: 1024.0 mg/kg/injection, schedule: Q08DX002 (ip)",8 of 8
same,survivor count,"dose: 2048.0 mg/kg/injection, schedule: Q01DX001 (ip)",8 of 8
same,survivor count,"dose: 2048.0 mg/kg/injection, schedule: Q04DX003 (oral)",8 of 8
same,survivor count,"dose: 2048.0 mg/kg/injection, schedule: Q08DX002 (ip)",8 of 8
